Source: patent publication US20240093034A1, “FLUORESCENT DYES” (EXOPHARM LIMITED, priority 2020, published 2024)

Legend:
platelet-derived EVs = assay: Labelling of extracellular vesicles with dyes (Superose 6 HPLC, UV and FLD detection); conditions: EV + 2 μM dye, 1 hr 37° C.; void peak area, 214 nm absorption
Experimental: Labelling of extracellular vesicles (EVs) with dyes 1-10 was performed according to the following procedure. 20 μL of platelet-derived EVs were incubated in HPLC vials with or without each dye at a final concentration of 2 μM dye, the dye stock solution being made up in water. For negative controls, an equivalent volume of the diluent solution was added to the EV solution. The sample was mixed gently. Each sample was subsequently incubated for 1 hr at 37° C. Samples were transferred and stored in the autosampler set at 4° C. A batch table was setup that injected unlabelled EVs prior to labelled EVs. A blank injection was run after each labelled EV experiment to ensure there was no carryover. 15 μL of each sample was injected onto a Superose 6 Increase column (3.2/300) from Cytiva. The flow rate was set at 0.15 mL min* The Shimadzu BioHPLC was run in isocratic mode with Buffer A: 1× PBS (phosphate-buffered saline), pH 7.4, 100 nm filtered. The column oven temperature was set at 30° C. Total run duration was 30 min. Data was collected using two detectors. The PDA (UV detector) was set to scan from 190-800 nm and a channel of the FLD (fluorescence detector) was set at 562 nm/583 nm (Ex/Em). Titration experiments were conducted to confirm that excess dye was removed. The areas of the void peaks from the 214 nm absorption and the 583 nm emission were calculated by the LabSolutions software using the manual integration function. To normalise the fluorescent signal, the total fluorescent area was divided by the UV 214 nm area. This ratio can be used to rank each dye, with higher ratios indicative of greater incorporation.

NHDF cells = assay: Removing excess dye with 40K MWCO Zeba Spin Desalting Column; design: species or system human; conditions: for cell staining after Zeba spin column (FIG. 5): 2 μM dye in 1× PBS, normalised to PLX+dye 2
MSC-EVs = assay: Dye labelling of MSC-EV preparations analysed by imaging flow cytometry (IFCM)
Experimental: MSC-EVs were prepared form human platelet lysate containing MSC-conditioned media by polyethylene glycol 6000 precipitation followed by ultracentrifugation, as described previously (Borger, V. et al, 2020, Scaled Isolation of Mesenchymal Stem/Stromal Cell-Derived Extracellular Vesicles. Curr Protoc Stem Cell Biol 55, e128; Kordelas et al., 2014, MSC-derived exosomes: a novel tool to treat therapy-refractory graft-versus-host disease. Leukemia 28, 970-973; Ludwig et al., 2018, Precipitation with polyethylene glycol followed by washing and pelleting by ultracentrifugation enriches extracellular vesicles from tissue culture supernatants in small and large scales. J Extracell Vesicles 7, 1528109). Conditioned media were harvested every 48 h. Obtained MSC-EV preparations were diluted in NaCl-HEPES buffer (Sigma-Aldrich, Taufkirchen, Germany) such that 1 mL of final samples contained the preparation yield of the conditioned media of approximately 4.0×10^7 cells.
The staining with CFSE (Thermo Fisher Scientific, Darmstadt, Germany) was based on the manufacturer's protocol. Slight modifications were required to reduce the signal from unbound CFSE. Briefly, the CFSE stock solution was diluted to a working solution of 10 μM CFSE. The solution was centrifuged three times for 10 min at 17,000 × g. Subsequently, 25 μL of MSC-EV preparations, corresponding to the amount of EVs derived from 1×10^6 MSCs, were incubated with the centrifuged CFSE solution for 20 min at 37° C. The sample was diluted 1:20 to a final volume of 1 mL prior to analysis.
The staining of MSC-EV preparations with Calcein AM followed the manufacturer's instructions. Briefly, 25 μL of MSC-EV preparations were incubated with 25 μL of a 20 μM solution of Calcein AM (Thermo Fisher Scientific) for 40 min at 37° C. The sample was diluted 1:20 to a final volume of 1 mL to reduce background noise, avoiding the requirement of a washing step.
The staining of MSC-EV preparations with BODIPY-TR-Ceramide followed the manufacturer's instructions. […]

With `CCCCCCCCCCCCCCCCN(C)C(=O)c1ccccc1-c1c2ccc(=[N+](CC)CC)cc-2oc2cc(N(CC)CC)ccc12.[Cl-]` [Dye 1, Rhodamine B N-methylhexadecylamide] the “UV area (EV + dye)” value (platelet-derived EVs) was 1092869.
With `CCCCCCCCCCCCCCCCCCN(C)C(=O)c1ccccc1-c1c2ccc(=[N+](CC)CC)cc-2oc2cc(N(CC)CC)ccc12.[Cl-]` [Dye 2, Rhodamine B N-methyloctadecylamide] the “UV area (EV + dye)” value (platelet-derived EVs) was 554454, the “Fluorescence - Zeba column” value (NHDF cells; 0.02 μM dye) was 1151 ± 14 and the “Fluorescence - no Zeba column” value (NHDF cells; 0.02 μM dye) was 1130 ± 20. The “Fluorescence - Zeba column” value (NHDF cells; 0.2 μM dye) was 1206 ± 20, the “Fluorescence - no Zeba column” value (NHDF cells; 0.2 μM dye) was 1829 ± 32 and the “Fluorescence - Zeba column” value (NHDF cells; 2 μM dye) was 1529 ± 14. For the same compound, the “Fluorescence - no Zeba column” value (NHDF cells; 2 μM dye) was 10299 ± 132, the “light scattering (SSC) of objects specifically labelled in MSC-EV preparations” value (MSC-EVs; dye + MSC-EVs) was “reflect those of sEVs” and the “labelled objects after NP40 treatment” value (MSC-EVs; dye + MSC-EVs + detergent NP40) was “disappeared following NP40 treatment”. The “objects in dye only solution (FIG. 8)” value (MSC-EVs; dye in NaCl-HEPES buffer, no EV preparation) was “contain no objects”.
In the case of `CCCCCCCCCCCCCCCCCCCCN(C)C(=O)c1ccccc1-c1c2ccc(=[N+](CC)CC)cc-2oc2cc(N(CC)CC)ccc12.[Cl-]` [Dye 3, Rhodamine B N-methylicosaneamide], the “UV area (EV + dye)” value (platelet-derived EVs) is reported as 1177448.
For `CCCCCCCCCCCCCCCCCCCCCCN(C)C(=O)c1ccccc1-c1c2ccc(=[N+](CC)CC)cc-2oc2cc(N(CC)CC)ccc12.[Cl-]` [Dye 4], the “UV area (EV + dye)” value (platelet-derived EVs) was 913937.
In the case of `CCCCCCCCCCCCCCN(CCCCC)C(=O)c1ccccc1-c1c2ccc(=[N+](CC)CC)cc-2oc2cc(N(CC)CC)ccc12.[Cl-]` [Dye 5, Rhodamine B N-pentyltetradecanamide], the “UV area (EV + dye)” value (platelet-derived EVs) is reported as 1918454.
In the case of `CCCCCCCCCCCCCCCCCCN(CCCCC)C(=O)c1ccccc1-c1c2ccc(=[N+](CC)CC)cc-2oc2cc(N(CC)CC)ccc12.[Cl-]` [Dye 6, Rhodamine B N-pentyloctadecanamide], the “UV area (EV + dye)” value (platelet-derived EVs) is reported as 1803632.
With `CCCCCCCCCCCCCCCCN(CCOC)C(=O)c1ccccc1-c1c2ccc(=[N+](CC)CC)cc-2oc2cc(N(CC)CC)ccc12.[Cl-]` [Dye 7, Rhodamine B N-ethyl methyl ether hexadecanamide] the “UV area (EV + dye)” value (platelet-derived EVs) was 1056319.
In the case of `CCCCCCCCCCCCCCCCCCN(CCOC)C(=O)c1ccccc1-c1c2ccc(=[N+](CC)CC)cc-2oc2cc(N(CC)CC)ccc12.[Cl-]` [Dye 8, Rhodamine B N-ethyl methyl ether octadecanamide], the “UV area (EV + dye)” value (platelet-derived EVs) is reported as 1173725.
With `CCCCCCCCCCCCCCCCCCN(CCO)C(=O)c1ccccc1-c1c2ccc(=[N+](CC)CC)cc-2oc2cc(N(CC)CC)ccc12.[Cl-]` [Dye 9, Rhodamine B N-(2-hydroxyethyl)octadecanamide] the “UV area (EV + dye)” value (platelet-derived EVs) was 1367007.
In the case of `CCCCCCCCCCCCCCCCCCCCN(CCOC)C(=O)c1ccccc1-c1c2ccc(=[N+](CC)CC)cc-2oc2cc(N(CC)CC)ccc12.[Cl-]` [Dye 10, Rhodamine B N-ethyl methyl ether icosaneamide], the “UV area (EV + dye)” value (platelet-derived EVs) is reported as 1106893.
`CCCCCCCC/C=C\CCCCCCCCN(C)C(=O)c1ccccc1-c1c2ccc(=[N+](CC)CC)cc-2oc2cc(N(CC)CC)ccc12` [Dye 17, Rhodamine B N-methyloleylamide] was tested, and the “cell staining after Zeba spin column (FIG. 5)” value (NHDF cells) was “no cell staining was observed”.
With `CCCCCCCC/C=C/CCCCCCCCN(C)C(=O)c1ccccc1-c1c2ccc(=[N+](CC)CC)cc-2oc2cc(N(CC)CC)ccc12` [Dye 18, Rhodamine B N-methylelaidylamide] the “cell staining after Zeba spin column (FIG. 5)” value (NHDF cells) was “no cell staining was observed”.
